US12186283B2, “Bismuth-thiol compositions and methods of use” (Microbion Corporation, priority 2018, dated 2025)
For some assays here: At least one compound was matched to its structure with a doubt left. Some of these results come from one statement about several compounds together.

Assays:
[1] = test system: P. aeruginosa and A. baumannii; test: Broth microdilution MIC (Example 11), group statement; format: cell-based, Pseudomonas aeruginosa and Acinetobacter baumannii; settings: QC isolate, metallo-beta-lactamase or multi-drug resistant isolates
[2] = test system: Clostridium difficile; settings: C. difficile MMX 4381 (ATCC 700057), CC^I; cited from earlier work

SMILES	MIC values (range across isolates) [1] [µg/mL]	MIC, CLSI QC range [2]
CC(S)C(C)S.[Bi] (centres unmarked) [BisBDT, bismuth-2,3-butanedithiol]	0.5 to 2	
CCC[C@@H]1C[C@@H](C(=O)N[C@@H]([C@H]2O[C@H](SC)[C@H](O)[C@@H](O)[C@H]2O)[C@H](C)Cl)N(C)C1 [clindamycin, reference compound]		(2-8) pg/mL
